Measured values: the supplement of paper PMC8616043
Counter-ions that a name gives are not always drawn. This is one part of the list. Single values are uncertain here, since repeats match poorly.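 The cells are human U-2 OS cells that stably carry a GFP sensor with a nuclear import signal and a classical export signal. They were transfected to make PR50, a 50-repeat proline–arginine dipeptide protein from the ALS/FTD gene C9ORF72. Each well's nuclear-minus-cytoplasm GFP signal was scaled from in-plate DMSO (low) to PR-only wells (high), then scored against the other test wells on the plate; compounds scoring well below zero were called hits that reverse the PR effect.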

test system: U-2 OS NCT-C biosensor cells expressing PR50; test: Z-score of normalised NCT-C biosensor translocation index in PR50-expressing cells; higher = more nuclear biosensor (more disrupted nuclear export); details: 3 µM; 24 h

SMILES	Z-score
N=C(N)c1ccc(OCCCCCOc2ccc(C(=N)N)cc2)cc1 [Pentamidine Isethionate]	inactive: -0.318
N=C(N)c1ccc(OCCCCCOc2ccc(C(=N)N)cc2)cc1 [Pentamidine isethionate]	inactive: -0.783
O=c1cc(-c2cccc3c2Sc2ccccc2S3)oc(N2CCOCC2)c1	inactive: -0.291
Fc1ccc(C(c2ccc(F)cc2)N2CCN(C/C=C/c3ccccc3)CC2)cc1 [Flunarizine dihydrochloride]	inactive: -0.511
O=C(Nc1ccccc1)c1cc([N+](=O)[O-])ccc1Cl	inactive: 0.121
CCCc1cc(=O)[nH]c(=S)[nH]1 [Propylthiouracil]	inactive: -0.0195
c1ccc2c(Cc3c[nH]c4ccccc34)c[nH]c2c1 [Diindolylmethane]	inactive: -0.563
CO/N=C(\C(=O)N[C@@H]1C(=O)N2C(C(=O)OCOC(=O)C(C)(C)C)=C(/C=C\c3scnc3C)CS[C@H]12)c1csc(N)n1 [Cefditoren Pivoxil]	inactive: -0.355
S=C(S)OC1CC2CC1C1CCCC21 [D-609 potassium]	inactive: 0.357
O=[N+]([O-])c1ccc(-c2nc(-c3ccc(F)cc3)c(-c3ccncc3)[nH]2)cc1	inactive: 1.53
Oc1ncnc2[nH]ncc12 [Allopurinol]	inactive: 0.177
C[C@]12CCC(=O)C=C1CC[C@@H]1[C@@H]2[C@@H](O)C[C@@]2(C)[C@H]1CC[C@]2(O)C(=O)CO [Hydrocortisone]	inactive: 0.163
CNCCCC1c2ccccc2C=Cc2ccccc21 [Protriptyline hydrochloride]	inactive: -1.54
CNCCCC1c2ccccc2C=Cc2ccccc21 [Protriptyline·HCl]	inactive: -0.171
CCOC(=O)C1=C[C@@H](OC(CC)CC)[C@H](NC(C)=O)[C@@H](N)C1 [Oseltamivir phosphate]	inactive: -0.268
CCOC(=O)C1=C[C@@H](OC(CC)CC)[C@H](NC(C)=O)[C@@H](N)C1 [Oseltamivir Phosphate]	inactive: -0.305
CN(C)CC/C=C1/c2ccccc2Sc2ccc(Cl)cc21 [Chlorprothixene hydrochloride]	inactive: 2.23
CN(C)c1ccc(/C=C/C2=CC(=C/C=C3C=CC(=[N+](C)C)C=C3)/O[B-](F)(F)O2)cc1	inactive: 0.629
Cn1cc(CNCC2CCN(c3ncc(C(=O)NO)cn3)CC2)c2ccccc21	inactive: -0.33
CC(=O)[C@H]1CC[C@H]2[C@@H]3CCC4=CC(=O)CC[C@]4(C)[C@H]3CC[C@]12C [Progesterone]	inactive: -0.392
Nc1c(C(=O)Nc2c(F)cc(F)cc2Br)sc2nc3c(cc12)CCC3	inactive: 0.231

SMILES	Z-score
CCOC(=O)CCNc1cc(N2CCc3ccccc3CC2)nc(-c2ccccn2)n1	inactive: -1.82
CN(C)CCOC(c1ccccc1)c1ccccc1 [Diphenhydramine hydrochloride]	inactive: 0.894
CN(C)CCOC(c1ccccc1)c1ccccc1 [Diphenhydramine·HCl]	inactive: -0.69
CCCN(CCC)S(=O)(=O)c1ccc(C(=O)O)cc1 [Probenecid]	inactive: 0.035
O=c1[nH]c(=S)[nH]c(-c2ccccc2)c1Cc1c(O)ccc2ccccc12 [Cambinol]	inactive: 1.16
C[C@]12CC[C@@H]3c4ccc(O)cc4CC[C@H]3[C@@H]1CC[C@@H]2O [beta-Estradiol]	inactive: -0.164
C[C@]12CC[C@@H]3c4ccc(O)cc4CC[C@H]3[C@@H]1CC[C@@H]2O [Estradiol]	inactive: 0.295
C[n+]1cc2c3c(ccc2c2ccc4cc5c(cc4c21)OCO5)OCO3 [Sanguinarine]	inactive: -0.725
C[n+]1cc2c3c(ccc2c2ccc4cc5c(cc4c21)OCO5)OCO3 [Sanguinarine chloride]	inactive: -1.25
Nc1ncnc2c1ncn2[C@@H]1O[C@H](CO)[C@@H](O)[C@H]1O [Adenosine]	inactive: 0.252
O=C(c1ccc(Nc2nccc(-c3cc4ccccc4s3)n2)cc1)N1CCC(N2CCCC2)CC1 [IKK-16  dihydrochloride]	inactive: 0.0162
Clc1ccc(CSC(Cn2ccnc2)c2ccc(Cl)cc2Cl)cc1 (stereo unspecified) [Sulconazole Nitrate]	inactive: -0.514
CC(=O)O[C@@]12CO[C@@H]1C[C@H](O)[C@@]1(C)C(=O)[C@H](O)C3=C(C)[C@@H](OC(=O)[C@H](O)[C@@H](NC(=O)OC(C)(C)C)c4ccccc4)C[C@@](O)([C@@H](OC(=O)c4ccccc4)[C@H]21)C3(C)C [Docetaxel (Taxotere)]	inactive: 10.6
COc1ccccc1N1CCN(CCN(C(=O)C2CCCCC2)c2ccccn2)CC1	inactive: -0.207
Nc1ccn([C@@H]2O[C@H](CO)[C@@H](O)C2(F)F)c(=O)n1 [Gemcitabine hydrochloride]	inactive: 3.47
Nc1ccn([C@@H]2O[C@H](CO)[C@@H](O)C2(F)F)c(=O)n1 [Gemcitabine·HCl]	inactive: 0.685
CO[C@H]1C[C@@H]2CC[C@@H](C)[C@@](O)(O2)C(=O)C(=O)N2CCCC[C@H]2C(=O)O[C@H]([C@H](C)C[C@@H]2CC[C@@H](OCCO)[C@H](OC)C2)CC(=O)[C@H](C)/C=C(\C)[C@@H](O)[C@@H](OC)C(=O)[C@H](C)C[C@H](C)/C=C/C=C/C=C/1C [Everolimus]	inactive: 0.0184
C=CC1=C(C)c2cc3[nH]c(cc4nc(cc5[nH]c(cc1n2)c(C)c5CCC(=O)O)C(CCC(=O)O)=C4C)c(C)c3C=C [Protoporphyrin IX]	inactive: -0.103
CC1CNc2c(cccc2S(=O)(=O)N[C@@H](CCCNC(=N)N)C(=O)N2CC[C@@H](C)C[C@@H]2C(=O)O)C1 (stereo partly specified) [Argatroban monohydrate]	inactive: -0.421
CC1CNc2c(cccc2S(=O)(=O)N[C@@H](CCCNC(=N)N)C(=O)N2CC[C@@H](C)C[C@@H]2C(=O)O)C1 (stereo partly specified) [Argatroban]	inactive: 0.385

Already shown: an excerpt of the list.
SMILES	Z-score
CCCN(CCC)S(=O)(=O)c1ccc(C(=O)O)cc1 [Probenecid]	inactive: 0.035
O=c1[nH]c(=S)[nH]c(-c2ccccc2)c1Cc1c(O)ccc2ccccc12 [Cambinol]	inactive: 1.16
